# Results reported in patent publication US9249306B2, “Quenched dendrimeric dyes for florescence detection” (Carnegie Mellon University, priority 2009, dated 2016).
# Columns and labels:
# [1] = Fluorescence of free (unbound) dyedron in solution; conditions: total absorbance normalized fluorescence (530-800 nm) of dyedron divided by that of Cy3.29
# L5-MG E52D [2] = assay type: physicochemical, human; conditions: PBS+
# L5-MG E52D [3] = assay type: physicochemical, human; conditions: L5-MG E52D activated dyedron
# Method: Fluoromodules were assembled as above, and quantum yields based on the acceptor MG excitation band were determined as described using Cy5.18 as the calibration dye (Szent-Gyorgyi, C., et al., Nature Biotechnology 2008, 26, 235-240). Quantum yields determined with 620 nm excitation (Table 2) were essentially the same as unreported quantum yields determined with 590 nm excitation (<5% difference).
# L5-MG E52D [4] = assay type: physicochemical, human; conditions: soluble dyedron/L5-MG E52D complex
# [5] = Donor array fluorescence of Cy3-labeled cystamine core PAMAM dendrimers; assay type: physicochemical; conditions: per-dye quantum efficiency relative to free dye
# Method: To test the impact of high loading on donor array fluorescence, two cystamine core PAMAM dendrimers (Gen2-16 NH2 and Gen3-32 NH2) were labeled with an excess of monoreactive Cy3-NHS ester. After removal of excess dye by gel filtration the resulting macromolecules were analyzed by electrophoresis, and found to have low net mobility. Because each Cy3 molecule carries one net negative charge, a fully modified dendron should have a net charge of −2. […] However, these conjugates allow for the assessment of the potential risk of donor quenching.
Compound,Fquenched/Ffree [1],factor increase of MG band absorbance when binding to L5-MG E52D (L5-MG E52D [2]),ε × φ/10^3 (brightness) (L5-MG E52D [3]),F532/F635 (L5-MG E52D [4]),F dendrimer / F free [5],factor increase of MG band absorbance when binding to L5-MG E52D (L5-MG E52D [2]; listed as MG-2p)
CC[N+]1=C(/C=C/C=C2/N(CCCCCC(=O)NCC(CNC(=O)CCCCCN3/C(=C/C=C/C4=[N+](CC)c5ccc(S(=O)(=O)O)cc5C4(C)C)C(C)(C)c4cc(S(=O)(=O)[O-])ccc43)OCC(=O)NCCCOc3ccc(C(=C4C=CC(=[N+](C)C)C=C4)c4ccc(N(C)C)cc4)cc3)c3ccc(S(=O)(=O)[O-])cc3C2(C)C)C(C)(C)c2cc(S(=O)(=O)[O-])ccc21 (stereo not drawn) [BCM],0.0036,1.93,14,2.86,–,–
"CCN1/C(=C\C=C\C2=[N+](CCCCCC(=O)NCCNC(=O)CCCOc3ccc(C(=C4C=CC(=[N+](C)C)C=C4)c4ccc(N(C)C)cc4)cc3)c3ccc(S(=O)(=O)[O-])cc3C2(C)C)C(C)(C)c2cc(S(=O)(=O)[O-])ccc21 [CM, 1-{6-[(2-{[4-(4-{[4-(dimethylamino)phenyl][4-(dimethyliminio)cyclohexa-2,5-dien-1-ylidene]methyl}phenoxy)butanoyl]amino}ethyl)amino]-6-oxohexyl}-2-[(1E,3Z)-3-(1-ethyl-3,3-dimethyl-5-sulfonato-1,3-dihydro-2H-indol-2-ylidene)prop-1-en-1-yl]-3,3-dimethyl-3H-indolium-5-sulfonate]",0.0084,1.78,8.0,1.54,–,–
CCN1/C(=C\C=C\C2=[N+](CCCCCC(=O)O)c3ccc(S(=O)(=O)O)cc3C2(C)C)C(C)(C)c2cc(S(=O)(=O)[O-])ccc21 [Cy3],–,–,–,–,1,–
"CN(C)c1ccc(C(=C2C=CC(=[N+](C)C)C=C2)c2ccc(OCCCC(=O)NCCNC(=O)CCC(=O)NCCOCCOCCN)cc2)cc1 [M, malachite green diethyleneglycolamine]",–,–,4.4,0.05,–,1.56 and ~2

# Where “and” joins values, the source holds several entries; their conditions need not be identical. Identical values can stand only once. Like-named read-outs stand apart in the source and are kept apart here.
